Source: PubChem BioAssay AID2662 (National Center for Advancing Translational Sciences (NCATS), 2010)
Among all 290,000 compounds or so, about 110 (0.038%) were called active. The shares of active, inactive and inconclusive entries below differ from those in the screen. Calls follow the shape of the dose curve; as a rule, active = well fitted inhibition curve with a large enough effect in the polarisation, with a control signal flat (not every such curve was filed as active); inconclusive = small, poorly fitted or top-dose-only effect, or effect the other way, or a change in a side signal; inactive = no such curve, though single readings can be large or run the other way; the % refers to the polarisation. Potencies beside an inconclusive call are fits to weak or partial responses and may not hold up. “Side channel” marks fits to a control or component signal instead of the main read-out.

Protein sequences, listed by entry. Tags and fused reporters are not part of them.
UniProt Q03164, whole entry, looked up: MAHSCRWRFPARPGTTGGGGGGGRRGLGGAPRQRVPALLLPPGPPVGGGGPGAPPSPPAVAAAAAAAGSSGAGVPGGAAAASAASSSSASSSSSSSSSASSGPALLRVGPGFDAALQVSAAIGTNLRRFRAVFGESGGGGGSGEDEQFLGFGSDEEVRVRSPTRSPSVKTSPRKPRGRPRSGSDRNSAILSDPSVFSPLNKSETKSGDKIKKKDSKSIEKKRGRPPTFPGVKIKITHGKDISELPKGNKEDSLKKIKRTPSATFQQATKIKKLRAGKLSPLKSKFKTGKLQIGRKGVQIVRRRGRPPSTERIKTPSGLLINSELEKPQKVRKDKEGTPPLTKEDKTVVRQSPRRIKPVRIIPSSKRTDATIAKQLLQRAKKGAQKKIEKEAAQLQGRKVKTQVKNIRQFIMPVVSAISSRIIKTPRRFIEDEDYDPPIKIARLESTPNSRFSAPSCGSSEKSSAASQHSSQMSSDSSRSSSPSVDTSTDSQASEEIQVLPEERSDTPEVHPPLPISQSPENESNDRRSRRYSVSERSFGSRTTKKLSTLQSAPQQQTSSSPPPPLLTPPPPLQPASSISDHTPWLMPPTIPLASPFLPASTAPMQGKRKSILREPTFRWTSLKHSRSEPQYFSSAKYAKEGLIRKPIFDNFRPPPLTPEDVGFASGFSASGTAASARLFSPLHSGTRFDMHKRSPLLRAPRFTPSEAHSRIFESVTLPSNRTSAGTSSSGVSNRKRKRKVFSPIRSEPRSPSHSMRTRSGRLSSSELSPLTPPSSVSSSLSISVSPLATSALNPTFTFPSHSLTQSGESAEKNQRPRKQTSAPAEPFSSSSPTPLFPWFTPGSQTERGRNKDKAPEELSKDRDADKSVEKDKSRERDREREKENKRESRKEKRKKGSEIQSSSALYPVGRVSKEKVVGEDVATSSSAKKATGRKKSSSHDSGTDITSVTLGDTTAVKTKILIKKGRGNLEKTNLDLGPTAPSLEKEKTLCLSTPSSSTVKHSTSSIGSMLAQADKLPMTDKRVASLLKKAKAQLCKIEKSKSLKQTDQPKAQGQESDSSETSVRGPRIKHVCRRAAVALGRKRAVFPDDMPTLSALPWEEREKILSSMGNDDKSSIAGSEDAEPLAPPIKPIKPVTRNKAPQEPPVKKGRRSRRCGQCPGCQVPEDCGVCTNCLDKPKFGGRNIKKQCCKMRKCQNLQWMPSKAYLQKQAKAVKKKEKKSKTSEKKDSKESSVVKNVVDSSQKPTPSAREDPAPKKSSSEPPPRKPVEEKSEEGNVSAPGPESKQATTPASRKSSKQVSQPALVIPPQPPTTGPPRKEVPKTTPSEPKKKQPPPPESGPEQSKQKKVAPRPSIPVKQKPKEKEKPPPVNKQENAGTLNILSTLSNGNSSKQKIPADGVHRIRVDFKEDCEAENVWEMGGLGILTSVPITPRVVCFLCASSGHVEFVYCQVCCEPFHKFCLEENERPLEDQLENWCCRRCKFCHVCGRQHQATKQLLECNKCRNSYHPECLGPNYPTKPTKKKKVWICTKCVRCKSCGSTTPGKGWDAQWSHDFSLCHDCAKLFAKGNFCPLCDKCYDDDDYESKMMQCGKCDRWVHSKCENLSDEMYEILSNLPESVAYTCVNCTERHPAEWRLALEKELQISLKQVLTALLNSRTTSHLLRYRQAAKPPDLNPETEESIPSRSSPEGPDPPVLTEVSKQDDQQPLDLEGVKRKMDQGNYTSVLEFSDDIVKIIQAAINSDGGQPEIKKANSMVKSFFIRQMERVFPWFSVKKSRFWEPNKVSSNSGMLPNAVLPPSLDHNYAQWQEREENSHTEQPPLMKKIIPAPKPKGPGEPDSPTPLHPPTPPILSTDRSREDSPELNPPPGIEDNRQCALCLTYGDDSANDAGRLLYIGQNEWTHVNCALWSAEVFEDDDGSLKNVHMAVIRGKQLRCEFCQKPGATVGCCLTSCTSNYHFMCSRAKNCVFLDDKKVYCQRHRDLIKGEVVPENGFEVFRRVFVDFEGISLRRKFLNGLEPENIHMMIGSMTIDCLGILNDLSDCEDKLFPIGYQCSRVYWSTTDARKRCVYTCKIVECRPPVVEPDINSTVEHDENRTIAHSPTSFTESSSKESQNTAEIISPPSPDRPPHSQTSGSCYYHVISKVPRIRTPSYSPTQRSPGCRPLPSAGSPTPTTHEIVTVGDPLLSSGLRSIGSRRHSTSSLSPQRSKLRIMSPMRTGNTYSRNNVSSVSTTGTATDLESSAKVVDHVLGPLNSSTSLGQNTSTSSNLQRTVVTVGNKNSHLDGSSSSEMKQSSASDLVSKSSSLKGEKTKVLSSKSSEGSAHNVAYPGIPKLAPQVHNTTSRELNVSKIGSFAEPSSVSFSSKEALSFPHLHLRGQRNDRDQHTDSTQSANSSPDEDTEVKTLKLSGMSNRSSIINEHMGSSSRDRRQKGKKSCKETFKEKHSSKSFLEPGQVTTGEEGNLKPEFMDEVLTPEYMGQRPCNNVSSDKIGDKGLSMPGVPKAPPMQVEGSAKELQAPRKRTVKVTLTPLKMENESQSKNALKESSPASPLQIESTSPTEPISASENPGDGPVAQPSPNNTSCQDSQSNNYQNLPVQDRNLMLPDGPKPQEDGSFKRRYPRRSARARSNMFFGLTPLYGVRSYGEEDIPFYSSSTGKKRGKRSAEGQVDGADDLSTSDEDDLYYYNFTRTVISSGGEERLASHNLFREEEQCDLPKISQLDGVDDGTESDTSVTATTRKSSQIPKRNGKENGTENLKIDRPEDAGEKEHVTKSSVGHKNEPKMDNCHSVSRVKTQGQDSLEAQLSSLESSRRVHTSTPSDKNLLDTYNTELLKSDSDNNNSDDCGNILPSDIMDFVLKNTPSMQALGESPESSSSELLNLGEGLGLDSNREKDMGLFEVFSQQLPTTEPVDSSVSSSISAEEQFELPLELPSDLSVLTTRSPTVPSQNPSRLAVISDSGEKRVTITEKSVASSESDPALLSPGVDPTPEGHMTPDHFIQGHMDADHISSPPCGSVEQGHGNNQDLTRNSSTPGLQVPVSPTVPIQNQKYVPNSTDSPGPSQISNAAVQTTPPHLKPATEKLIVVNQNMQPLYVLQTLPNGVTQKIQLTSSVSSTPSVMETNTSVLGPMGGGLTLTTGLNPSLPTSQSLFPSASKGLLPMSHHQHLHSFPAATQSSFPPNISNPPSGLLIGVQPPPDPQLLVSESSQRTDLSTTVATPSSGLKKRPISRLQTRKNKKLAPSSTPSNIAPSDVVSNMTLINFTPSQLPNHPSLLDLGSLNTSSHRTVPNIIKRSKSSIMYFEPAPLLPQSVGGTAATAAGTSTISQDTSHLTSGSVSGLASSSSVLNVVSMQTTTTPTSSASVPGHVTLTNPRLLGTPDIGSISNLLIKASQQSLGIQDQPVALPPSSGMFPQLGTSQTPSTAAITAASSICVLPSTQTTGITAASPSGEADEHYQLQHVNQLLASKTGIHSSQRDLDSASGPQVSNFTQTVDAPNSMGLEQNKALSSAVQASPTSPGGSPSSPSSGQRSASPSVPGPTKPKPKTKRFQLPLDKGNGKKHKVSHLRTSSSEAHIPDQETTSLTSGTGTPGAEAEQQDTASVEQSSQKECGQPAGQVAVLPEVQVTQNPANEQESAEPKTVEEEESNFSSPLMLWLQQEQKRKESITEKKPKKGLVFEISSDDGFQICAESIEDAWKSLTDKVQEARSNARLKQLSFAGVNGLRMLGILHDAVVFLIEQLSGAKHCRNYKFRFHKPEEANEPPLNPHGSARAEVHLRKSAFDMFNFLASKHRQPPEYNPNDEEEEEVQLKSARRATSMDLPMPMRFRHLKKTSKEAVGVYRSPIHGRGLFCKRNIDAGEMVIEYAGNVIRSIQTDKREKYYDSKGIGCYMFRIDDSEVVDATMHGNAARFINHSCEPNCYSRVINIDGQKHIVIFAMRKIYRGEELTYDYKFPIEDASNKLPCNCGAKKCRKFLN

The compounds below were run against Histone-lysine N-methyltransferase 2A (Homo sapiens) (UniProt Q03164) (assay: qHTS Fluorescence Polarization Assay for Inhibitors of MLL CXXC domain - DNA interaction). Conditions: MLL-CXXC / FITC-HOXA9 DNA fluorescence polarization; activity change, negative = inhibition: at 115 µM (top of the series).
Summary of the method: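 Purified MLL-CXXC (added from a 7 uM solution) was preincubated 5 min at ambient with pinned compounds in 50 mM Tris-HCl pH 7.5, 50 mM NaCl, 1 mM DTT, 0.05% BSA. Fluorescein-labeled HOX-A9 DNA (50 nM solution) followed, 30 min, then polarization read.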
Potency is read from the fitted curve at half-maximal effect.

| Structure (SMILES) | activity change, negative = inhibition | Potency |
| --- | --- | --- |
| Cc1cc(-c2nnc(CCC(=O)N(CC3CCC3)CC3CCCO3)o2)no1 (stereo not drawn) | inactive: 1.06% | – |
| CC(C)Nc1nc(NC(N)=S)nc(NC(C)C)n1 | – | inconclusive: 25.1 µM [fluorescent, side channel, single point] |
| CCOCCCn1c(=N)c(C(=O)NCc2ccc3c(c2)OCO3)cc2c(=O)n3cccc(C)c3nc21 | – | inconclusive: 35.5 µM [quencher, side channel, partial curve] |
| O=C(Oc1ccc2c(c1)O/C(=C\c1ccncc1)C2=O)c1ccccc1 | – | inconclusive: 50.1 µM [fluorescent, side channel, partial curve] |
| COc1ccc(C)cc1Nc1nc(-c2ccccc2O)nc2ccccc12 | – | inconclusive: 70.8 µM [fluorescent, side channel, single point] |
| COc1ccc(NC(=O)NC(C(F)(F)F)C(F)(F)F)cc1 | inactive: -3.59% | – |
| O=c1oc(-c2ccccc2Br)nc2ccccc12 | – | inconclusive: 44.7 µM [fluorescent, side channel, partial curve, poor fit] |
| O=C(Cc1cccs1)Nc1ccc(S(=O)(=O)Nc2ncccn2)cc1 | inactive: 2.85% | – |
| COc1cnc(-c2ccccc2)nc1OC | – | inconclusive: 70.8 µM [fluorescent, side channel, single point] |
| Cc1ccc(-c2cnc(-c3ccccc3C(=O)O)o2)cc1 | – | inconclusive: 15.8 µM [fluorescent, side channel, single point] |
| COc1ccc(/C=c2\s/c(=C/C(=O)c3ccc(C)cc3)[nH]c2=O)cc1OC | – | inconclusive: 12.6 µM [fluorescent, side channel, full curve] |
| CN(CC(=O)Nc1ccccc1Cl)C(=O)CSc1nnc(-c2ccco2)o1 | – | inconclusive: 63.1 µM [fluorescent, side channel, single point] |
| Cc1c(Br)c(O)c(Br)c2sc(=O)oc12 | – | inconclusive: 11.2 µM [inhibitor, full curve, poor fit] |
| CN(C(=O)COC(=O)c1ccc(=O)n(Cc2ccccc2)n1)c1ccccc1 | – | inconclusive: 14.1 µM [fluorescent, side channel, single point] |
| COc1cc(/C=N/NC(=O)CNc2n[nH]c(=O)[nH]c2=O)ccc1O | – | inconclusive: 10 µM [inhibitor, single point] |
| COCCCNC(=S)NNC(=O)c1cc(Cl)c(O)c(Cl)c1 | – | inconclusive: 17.8 µM [inhibitor, partial curve] |
| O=C(CSc1ccc2ccccc2c1)NCCc1ccc(O)c(O)c1 | inactive: 2.34% | – |
| COc1cc2c(cc1OC)CN(CC(=O)Nc1ccc(C#N)cc1)CC2 | inactive: 11.5% | – |
| COc1cccc(NC(=O)c2ccc(-c3ccc([N+](=O)[O-])cc3)o2)c1 | – | inconclusive: 70.8 µM [fluorescent, side channel, single point] |

| Structure (SMILES) | activity change, negative = inhibition | Potency |
| --- | --- | --- |
| Cc1cc(Cl)c(OCCCNCc2ccccc2)c(Br)c1 | – | inconclusive: 20 µM [quencher, side channel, partial curve] |
| O=C(COc1ccccc1)Nc1nnc(-c2ccco2)o1 | – | inconclusive: 56.2 µM [quencher, side channel, single point] |
| CCOc1cc(S(=O)(=O)NC2CC(C)(C)NC(C)(C)C2)ccc1Cl | – | inconclusive: 63.1 µM [fluorescent, single point] |
| CCN1/C(=C/C=C/c2oc3ccc(-c4ccccc4)cc3[n+]2CC)Oc2ccc(-c3ccccc3)cc21 | – | inconclusive: 31.6 µM [fluorescent, side channel, partial curve, poor fit] |
| Cc1nnc(SCC(=O)NC(=O)Nc2ccc3c(c2)OCCO3)n1N | inactive: 1.61% | – |
| Cc1cc(NC(=O)CSc2nc3ccccc3cc2C#N)no1 | – | inconclusive: 35.5 µM [fluorescent, side channel, single point] |
| COc1ccc(-c2onc3ccc(C(C)=O)cc23)cc1 | – | inconclusive: 7.94 µM [fluorescent, side channel, partial curve] |
| O=C(CNC(=O)c1ccccc1F)OCC(=O)c1ccc(Cl)s1 | – | inconclusive: 89.1 µM [quencher, side channel, single point] |
| N#CC1=C(S)N(c2ccccc2)C(c2ccco2)NC1=O (stereo not drawn) | – | inconclusive: 28.2 µM [inhibitor, partial curve] |
| COc1ccc(C(=O)NCCCNC(=O)c2ccccn2)cc1 | – | inconclusive: 8.91 µM [quencher, side channel, single point] |
| O=C(O)c1cc(-c2ccc(/C=N/Nc3ccc([N+](=O)[O-])cn3)o2)ccc1Cl | – | inconclusive: 31.6 µM [quencher, side channel, single point] |
| CCOC(=O)C1=C(C)NC(=S)NC1c1cccs1 (stereo not drawn) | – | inconclusive: 14.1 µM [fluorescent, side channel, partial curve] |
| CN(C)CC/C=C1\c2ccccc2COc2ccc(CC(=O)O)cc21 | inactive: -5.81% | – |
| CCn1cc(C(=O)NCCC(C)C)c(=O)c2cc(F)c(N3CCN(C(=O)c4ccco4)CC3)cc21 | – | inconclusive: 14.1 µM [quencher, side channel, single point] |
| COC(=O)c1cc(=O)n(Cc2ccccc2)c(=NCc2ccccc2)s1 | – | inconclusive: 1.41 µM [fluorescent, side channel, full curve] |
| CC(C)(C)OC(=O)CN1c2cccc3cccc(c23)S1(=O)=O | – | inconclusive: 10 µM [inhibitor, single point] |
| O=C(CCN1C(=O)/C(=C\C=C\c2ccccc2)SC1=S)Nc1cccc(C(=O)O)c1 | – | inconclusive: 7.08 µM [inhibitor, partial curve] |
| O=C1/C(=N\S(=O)(=O)c2cccs2)C([n+]2ccccc2)=C([O-])c2ccccc21 | – | inconclusive: 70.8 µM [inhibitor, single point] |
| O=C1C(C2=NC(c3ccccn3)C3C(=O)N(c4ccccc4)C(=O)C23)=C(O)c2ccccc21 (stereo not drawn) | – | inconclusive: 15.8 µM [inhibitor, single point] |

A different layout for some results above:
Structure (SMILES) | activity change, negative = inhibition | Potency
CC(C)(C)OC(=O)CN1c2cccc3cccc(c23)S1(=O)=O | – | inconclusive: 10 µM [inhibitor, single point]
O=C(CCN1C(=O)/C(=C\C=C\c2ccccc2)SC1=S)Nc1cccc(C(=O)O)c1 | – | inconclusive: 7.08 µM [inhibitor, partial curve]
